Laboratory results taken from patent US20240409637A1.
Results are given in words; binding and its absence hold for the method and conditions named. Some entries that bind do so weakly or less than the wild type.

Sequences of proteins named here, by UniProt entry; tags and fusion partners are left off. A change or cut given only in a name is not applied to a line headed by its entry.
UniProt P01732: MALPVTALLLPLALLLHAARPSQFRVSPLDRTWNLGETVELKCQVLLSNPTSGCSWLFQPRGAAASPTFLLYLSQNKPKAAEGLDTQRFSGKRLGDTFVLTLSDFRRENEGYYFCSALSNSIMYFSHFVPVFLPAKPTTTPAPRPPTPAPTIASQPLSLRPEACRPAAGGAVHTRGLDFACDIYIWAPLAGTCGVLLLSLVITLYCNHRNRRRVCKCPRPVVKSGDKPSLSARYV

Target: human CD8α subunit (human) (UniProt P01732)
Test: Biacore and ELISA

B1: mAb1 (anti-CD8 monoclonal antibody) (antibody, V domains shown)
VH: QVQLVESGGGVDQPGRSLRLSCAASGFIFSNYGIHWVRQAPGKGLEWVAVIWYDGSNKYFEDSVKGRFNISRDNSKNIVYLQMNSLRAEDTAVYFCARSYDMLTGSGDYYGLDVWGQGTTVTVSS
VL: DIQMTQSPSSLSASVGDRVTITCRASQDITNYLAWFQQKPGKAPKSLIYGASSLQSGVPSKFSGSGSGTDFTLTISSLQPEDFATYYCQQYNNYPLTFGGGTKVEIK
- binding: binds
